{"sequences": {"note": "By UniProt entry, the sequences of proteins in these tests, tags left out. Residues count along the entry.", "UniProt O95757": "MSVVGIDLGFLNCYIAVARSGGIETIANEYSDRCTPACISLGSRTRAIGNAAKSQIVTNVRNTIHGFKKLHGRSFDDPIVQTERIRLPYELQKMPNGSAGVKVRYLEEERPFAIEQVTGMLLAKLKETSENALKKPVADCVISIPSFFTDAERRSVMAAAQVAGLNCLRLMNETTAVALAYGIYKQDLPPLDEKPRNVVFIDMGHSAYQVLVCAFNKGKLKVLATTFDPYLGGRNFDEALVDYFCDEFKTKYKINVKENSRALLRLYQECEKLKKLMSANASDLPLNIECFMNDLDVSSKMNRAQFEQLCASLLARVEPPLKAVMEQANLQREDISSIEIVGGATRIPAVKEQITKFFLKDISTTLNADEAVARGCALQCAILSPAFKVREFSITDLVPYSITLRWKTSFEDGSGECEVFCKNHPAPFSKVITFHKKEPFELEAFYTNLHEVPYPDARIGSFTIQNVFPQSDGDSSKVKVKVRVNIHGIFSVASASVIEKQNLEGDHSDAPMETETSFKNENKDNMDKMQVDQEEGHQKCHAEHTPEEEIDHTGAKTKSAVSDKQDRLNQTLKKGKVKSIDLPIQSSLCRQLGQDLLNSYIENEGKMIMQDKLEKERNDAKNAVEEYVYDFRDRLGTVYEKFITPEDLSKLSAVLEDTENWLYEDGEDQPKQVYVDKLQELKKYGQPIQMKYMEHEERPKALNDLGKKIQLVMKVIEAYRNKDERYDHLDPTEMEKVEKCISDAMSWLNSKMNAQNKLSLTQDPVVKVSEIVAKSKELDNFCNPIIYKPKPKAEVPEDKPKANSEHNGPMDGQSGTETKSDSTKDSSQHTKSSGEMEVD", "UniProt P11021, residues 19-654": "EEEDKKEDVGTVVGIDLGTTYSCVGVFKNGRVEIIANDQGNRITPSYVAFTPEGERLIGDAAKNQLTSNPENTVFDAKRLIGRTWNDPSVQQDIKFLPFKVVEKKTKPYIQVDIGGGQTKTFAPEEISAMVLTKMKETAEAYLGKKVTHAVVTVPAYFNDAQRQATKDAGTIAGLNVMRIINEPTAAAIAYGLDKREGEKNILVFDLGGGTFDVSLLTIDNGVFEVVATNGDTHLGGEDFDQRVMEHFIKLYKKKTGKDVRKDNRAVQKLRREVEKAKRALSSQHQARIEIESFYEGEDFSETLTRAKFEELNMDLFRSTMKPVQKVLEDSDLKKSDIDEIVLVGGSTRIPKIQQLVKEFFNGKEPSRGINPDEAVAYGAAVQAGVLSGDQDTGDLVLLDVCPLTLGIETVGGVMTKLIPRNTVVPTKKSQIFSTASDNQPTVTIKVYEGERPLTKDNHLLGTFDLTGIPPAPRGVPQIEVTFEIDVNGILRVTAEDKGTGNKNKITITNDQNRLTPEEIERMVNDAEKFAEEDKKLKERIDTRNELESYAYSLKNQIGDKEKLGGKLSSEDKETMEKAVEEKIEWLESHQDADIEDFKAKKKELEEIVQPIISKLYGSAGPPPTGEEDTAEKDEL", "UniProt P11142": "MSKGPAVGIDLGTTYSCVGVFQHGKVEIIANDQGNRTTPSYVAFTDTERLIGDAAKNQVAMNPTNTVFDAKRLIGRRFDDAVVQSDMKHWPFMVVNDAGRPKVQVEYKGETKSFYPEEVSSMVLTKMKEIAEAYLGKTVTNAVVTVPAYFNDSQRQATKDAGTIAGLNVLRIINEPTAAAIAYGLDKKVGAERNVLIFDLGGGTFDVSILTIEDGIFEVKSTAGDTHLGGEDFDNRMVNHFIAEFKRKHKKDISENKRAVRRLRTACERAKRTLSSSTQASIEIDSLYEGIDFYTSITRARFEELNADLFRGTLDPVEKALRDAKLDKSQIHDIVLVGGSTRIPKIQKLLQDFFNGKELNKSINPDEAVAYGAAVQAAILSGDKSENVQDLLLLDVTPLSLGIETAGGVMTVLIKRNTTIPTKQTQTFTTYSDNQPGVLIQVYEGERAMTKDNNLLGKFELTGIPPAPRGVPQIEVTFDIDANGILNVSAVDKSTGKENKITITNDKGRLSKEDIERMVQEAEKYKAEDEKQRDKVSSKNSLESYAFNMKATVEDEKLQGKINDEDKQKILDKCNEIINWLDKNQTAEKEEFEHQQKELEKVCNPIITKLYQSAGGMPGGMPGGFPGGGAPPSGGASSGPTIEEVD", "UniProt P38646, residues 47-679": "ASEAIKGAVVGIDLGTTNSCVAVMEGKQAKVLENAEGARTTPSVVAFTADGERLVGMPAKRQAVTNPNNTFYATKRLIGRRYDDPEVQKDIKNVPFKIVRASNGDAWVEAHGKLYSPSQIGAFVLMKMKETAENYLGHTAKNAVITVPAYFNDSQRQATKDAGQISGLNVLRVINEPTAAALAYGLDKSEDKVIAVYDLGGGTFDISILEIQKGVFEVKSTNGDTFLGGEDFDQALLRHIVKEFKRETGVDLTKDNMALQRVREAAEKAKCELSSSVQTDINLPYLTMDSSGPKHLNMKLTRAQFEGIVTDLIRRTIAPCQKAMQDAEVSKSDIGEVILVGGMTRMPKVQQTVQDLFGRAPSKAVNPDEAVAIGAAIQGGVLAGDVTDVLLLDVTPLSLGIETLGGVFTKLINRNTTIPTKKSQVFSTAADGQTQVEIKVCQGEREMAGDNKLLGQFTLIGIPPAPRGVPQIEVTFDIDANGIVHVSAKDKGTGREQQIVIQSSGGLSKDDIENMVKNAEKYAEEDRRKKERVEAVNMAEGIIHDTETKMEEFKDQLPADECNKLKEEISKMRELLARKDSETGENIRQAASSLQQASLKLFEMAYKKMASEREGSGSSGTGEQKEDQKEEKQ", "UniProt Q92598": "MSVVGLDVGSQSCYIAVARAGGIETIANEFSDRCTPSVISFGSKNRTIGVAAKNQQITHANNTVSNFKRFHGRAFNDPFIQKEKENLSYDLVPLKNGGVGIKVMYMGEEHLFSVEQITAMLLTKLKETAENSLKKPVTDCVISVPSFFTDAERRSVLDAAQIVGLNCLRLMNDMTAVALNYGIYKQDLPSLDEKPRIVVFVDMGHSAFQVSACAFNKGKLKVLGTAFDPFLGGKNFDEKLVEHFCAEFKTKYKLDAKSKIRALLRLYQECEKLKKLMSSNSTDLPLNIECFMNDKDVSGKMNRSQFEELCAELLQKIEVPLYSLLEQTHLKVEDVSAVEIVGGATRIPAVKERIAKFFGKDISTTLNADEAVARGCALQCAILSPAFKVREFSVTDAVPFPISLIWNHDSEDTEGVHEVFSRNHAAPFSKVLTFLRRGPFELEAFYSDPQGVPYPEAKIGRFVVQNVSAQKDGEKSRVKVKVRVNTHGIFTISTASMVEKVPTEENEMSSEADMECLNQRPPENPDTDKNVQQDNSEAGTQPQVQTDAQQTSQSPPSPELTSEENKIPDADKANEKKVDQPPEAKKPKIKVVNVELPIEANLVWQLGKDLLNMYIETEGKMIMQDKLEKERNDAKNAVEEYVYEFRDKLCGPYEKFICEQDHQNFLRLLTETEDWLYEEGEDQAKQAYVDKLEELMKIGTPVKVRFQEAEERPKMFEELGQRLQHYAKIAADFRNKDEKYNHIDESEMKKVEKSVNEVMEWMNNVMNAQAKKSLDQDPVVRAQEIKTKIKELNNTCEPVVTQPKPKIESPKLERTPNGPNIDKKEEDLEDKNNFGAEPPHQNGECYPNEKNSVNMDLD", "UniProt Q14160": "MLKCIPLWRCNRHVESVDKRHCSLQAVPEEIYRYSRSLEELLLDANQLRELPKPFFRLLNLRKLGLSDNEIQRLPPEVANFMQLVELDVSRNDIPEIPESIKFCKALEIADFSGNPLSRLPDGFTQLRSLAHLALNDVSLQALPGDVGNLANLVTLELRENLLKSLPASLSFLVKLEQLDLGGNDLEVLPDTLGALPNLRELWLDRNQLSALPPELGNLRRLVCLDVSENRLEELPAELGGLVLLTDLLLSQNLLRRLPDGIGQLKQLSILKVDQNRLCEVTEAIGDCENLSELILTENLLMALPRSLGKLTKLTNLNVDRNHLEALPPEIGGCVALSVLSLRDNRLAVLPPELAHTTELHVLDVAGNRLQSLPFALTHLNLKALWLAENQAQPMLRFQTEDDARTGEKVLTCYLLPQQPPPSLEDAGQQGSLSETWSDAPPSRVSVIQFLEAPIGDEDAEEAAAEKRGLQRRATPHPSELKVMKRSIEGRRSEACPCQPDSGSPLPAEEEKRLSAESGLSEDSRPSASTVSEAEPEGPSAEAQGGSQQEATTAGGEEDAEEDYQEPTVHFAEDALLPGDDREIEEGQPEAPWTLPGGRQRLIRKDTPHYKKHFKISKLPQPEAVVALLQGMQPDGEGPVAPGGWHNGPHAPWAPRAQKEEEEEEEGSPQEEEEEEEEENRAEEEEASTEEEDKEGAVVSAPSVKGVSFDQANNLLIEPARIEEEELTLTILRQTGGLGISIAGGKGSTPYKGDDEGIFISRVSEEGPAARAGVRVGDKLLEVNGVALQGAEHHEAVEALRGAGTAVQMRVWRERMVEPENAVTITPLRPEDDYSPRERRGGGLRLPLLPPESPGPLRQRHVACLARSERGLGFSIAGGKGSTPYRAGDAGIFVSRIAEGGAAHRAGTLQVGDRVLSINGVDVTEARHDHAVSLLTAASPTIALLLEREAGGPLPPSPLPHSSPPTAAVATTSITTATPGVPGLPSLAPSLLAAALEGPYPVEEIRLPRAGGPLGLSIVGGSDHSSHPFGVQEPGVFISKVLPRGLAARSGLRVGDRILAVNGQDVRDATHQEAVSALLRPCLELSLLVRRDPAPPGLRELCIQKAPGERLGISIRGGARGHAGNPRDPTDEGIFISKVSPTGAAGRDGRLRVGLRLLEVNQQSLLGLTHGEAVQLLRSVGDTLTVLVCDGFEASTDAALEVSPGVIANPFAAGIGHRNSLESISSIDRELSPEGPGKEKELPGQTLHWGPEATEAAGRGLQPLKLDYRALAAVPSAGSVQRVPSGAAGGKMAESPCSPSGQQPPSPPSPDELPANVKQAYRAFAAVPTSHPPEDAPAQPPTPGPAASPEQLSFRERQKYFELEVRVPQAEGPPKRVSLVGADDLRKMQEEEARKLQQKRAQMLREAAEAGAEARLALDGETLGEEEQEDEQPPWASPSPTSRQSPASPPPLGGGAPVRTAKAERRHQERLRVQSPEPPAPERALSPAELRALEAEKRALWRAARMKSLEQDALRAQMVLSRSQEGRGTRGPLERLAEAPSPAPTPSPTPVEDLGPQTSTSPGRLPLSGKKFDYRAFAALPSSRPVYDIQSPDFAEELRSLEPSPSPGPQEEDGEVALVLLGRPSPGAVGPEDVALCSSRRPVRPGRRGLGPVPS", "UniProt Q13425": "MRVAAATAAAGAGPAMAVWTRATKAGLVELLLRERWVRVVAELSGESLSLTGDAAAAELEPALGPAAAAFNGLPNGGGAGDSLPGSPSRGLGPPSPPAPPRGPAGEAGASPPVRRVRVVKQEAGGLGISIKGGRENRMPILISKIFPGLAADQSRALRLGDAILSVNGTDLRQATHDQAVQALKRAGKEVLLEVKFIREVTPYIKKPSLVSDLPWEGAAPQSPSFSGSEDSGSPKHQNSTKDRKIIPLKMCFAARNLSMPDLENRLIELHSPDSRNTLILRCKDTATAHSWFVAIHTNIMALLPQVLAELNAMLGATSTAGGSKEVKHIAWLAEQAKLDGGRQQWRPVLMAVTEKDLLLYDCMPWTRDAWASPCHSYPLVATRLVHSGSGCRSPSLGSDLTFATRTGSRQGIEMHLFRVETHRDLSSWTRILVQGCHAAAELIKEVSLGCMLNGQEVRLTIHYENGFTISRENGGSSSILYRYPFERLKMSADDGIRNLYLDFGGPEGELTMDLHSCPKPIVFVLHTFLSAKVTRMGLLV", "UniProt P17028": "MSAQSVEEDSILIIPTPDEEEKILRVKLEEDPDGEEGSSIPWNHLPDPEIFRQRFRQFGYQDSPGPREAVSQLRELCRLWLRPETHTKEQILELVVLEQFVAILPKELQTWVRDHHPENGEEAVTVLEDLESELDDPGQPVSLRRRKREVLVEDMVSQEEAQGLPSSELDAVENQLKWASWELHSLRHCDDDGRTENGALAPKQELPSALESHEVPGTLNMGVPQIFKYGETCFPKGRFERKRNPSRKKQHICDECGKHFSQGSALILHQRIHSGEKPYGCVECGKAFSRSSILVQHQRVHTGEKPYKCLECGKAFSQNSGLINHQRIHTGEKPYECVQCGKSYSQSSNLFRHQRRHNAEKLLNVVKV"}, "source": "paper doi:10.1101/2021.05.19.444448", "note": "These are yes or no findings as the source states them, for the method shown. Binding seen in cells or lysates may run through a third protein. Here binding means that the protein was enriched with, or labelled near, the bait; the list need not be complete. For some of these results: No binding means not detected with the bait. Where a sequence is shown, tags or fusion partners need not be part of it.", "data": [{"biological_target": "T1, HA-tagged PGBD1 (piggyBac transposable element derived 1) (human) (UniProt Q96JS3)", "T1 sequence": "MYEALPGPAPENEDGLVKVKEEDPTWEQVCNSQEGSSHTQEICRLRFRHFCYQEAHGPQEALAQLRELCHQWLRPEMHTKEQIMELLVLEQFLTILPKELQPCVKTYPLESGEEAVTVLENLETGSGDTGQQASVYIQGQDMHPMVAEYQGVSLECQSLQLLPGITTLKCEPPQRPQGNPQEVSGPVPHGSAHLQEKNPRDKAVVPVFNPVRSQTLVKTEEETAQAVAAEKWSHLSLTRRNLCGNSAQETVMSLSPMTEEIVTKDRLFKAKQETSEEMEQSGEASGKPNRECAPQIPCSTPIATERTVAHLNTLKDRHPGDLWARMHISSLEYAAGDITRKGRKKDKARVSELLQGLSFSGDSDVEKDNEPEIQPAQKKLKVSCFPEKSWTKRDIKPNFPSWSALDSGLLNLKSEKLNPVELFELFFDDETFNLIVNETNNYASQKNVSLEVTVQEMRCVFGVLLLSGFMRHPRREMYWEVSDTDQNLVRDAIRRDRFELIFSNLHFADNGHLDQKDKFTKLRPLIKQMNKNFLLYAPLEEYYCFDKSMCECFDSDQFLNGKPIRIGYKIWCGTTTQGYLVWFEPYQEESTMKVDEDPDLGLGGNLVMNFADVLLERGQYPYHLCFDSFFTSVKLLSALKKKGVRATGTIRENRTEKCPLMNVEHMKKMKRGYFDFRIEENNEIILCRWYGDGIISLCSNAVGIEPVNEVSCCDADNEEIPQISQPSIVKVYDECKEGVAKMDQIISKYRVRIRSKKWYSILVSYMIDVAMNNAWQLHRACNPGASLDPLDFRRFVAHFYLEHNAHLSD", "assay": "affinity purification with mass spectrometry", "values": [{"molecule": "Dystrophin (DMD) (from UniProt P11532 1-3685)", "binding": "binds"}, {"molecule": "HSPA1A (from UniProt P0DMV8 1-641)", "binding": "binds"}, {"molecule": "HSPA4 (from UniProt P34932 1-840)", "binding": "binds"}, {"molecule": "HSPA4L (from UniProt O95757 1-839)", "binding": "binds"}, {"molecule": "HSPA5 (from UniProt P11021 19-654)", "binding": "binds"}, {"molecule": "HSPA8 (HSC70), endogenous in HEK293 (from UniProt P11142 1-646)", "binding": "binds"}, {"molecule": "HSPA9 (from UniProt P38646 47-679)", "binding": "binds"}, {"molecule": "HSPH1 (from UniProt Q92598 1-858)", "binding": "binds"}, {"molecule": "SCRIB (from UniProt Q14160 1-1655)", "binding": "binds"}, {"molecule": "Syntrophin beta 2 (SNTB2) (from UniProt Q13425 1-540)", "binding": "binds"}, {"molecule": "TRIM28 (from UniProt Q13263 1-835)", "binding": "no binding"}, {"molecule": "Uthrophin (UTRN) (from UniProt P46939 1-3433)", "binding": "binds"}, {"molecule": "ZNF24 (Zn-finger protein 24) (from UniProt P17028 1-368)", "binding": "binds"}]}, {"biological_target": "T1, HA-tagged PGBD1 (piggyBac transposable element derived 1) (human)", "assay": "affinity purification with mass spectrometry", "remark": "another data set of the same source", "values": [{"molecule": "Syntrophin beta 1 (SNTB1) (protein, UniProt Q13884 1-538) MAVAAAAAAAGPAGAGGGRAQRSGLLEVLVRDRWHKVLVNLSEDALVLSSEEGAAAYNGIGTATNGSFCRGAGAGHPGAGGAQPPDSPAGVRTAFTDLPEQVPESISNQKRGVKVLKQELGGLGISIKGGKENKMPILISKIFKGLAADQTQALYVGDAILSVNGADLRDATHDEAVQALKRAGKEVLLEVKYMREATPYVKKGSPVSEIGWETPPPESPRLGGSTSDPPSSQSFSFHRDRKSIPLKMCYVTRSMALADPENRQLEIHSPDAKHTVILRSKDSATAQAWFSAIHSNVNDLLTRVIAEVREQLGKTGIAGSREIRHLGWLAEKVPGESKKQWKPALVVLTEKDLLIYDSMPRRKEAWFSPVHTYPLLATRLVHSGPGKGSPQAGVDLSFATRTGTRQGIETHLFRAETSRDLSHWTRSIVQGCHNSAELIAEISTACTYKNQECRLTIHYENGFSITTEPQEGAFPKTIIQSPYEKLKMSSDDGIRMLYLDFGGKDGEIQLDLHSCPKPIVFIIHSFLSAKITRLGLVA", "binding": "binds"}, {"molecule": "Catenin alpha like 1 (CTNNAL1) (protein, UniProt Q9UBT7 1-734) MAASPGPAGVGGAGAVYGSGSSGFALDSGLEIKTRSVEQTLLPLVSQITTLINHKDNTKKSDKTLQAIQRVGQAVNLAVGRFVKVGEAIANENWDLKEEINIACIEAKQAGETIAALTDITNLNHLESDGQITIFTDKTGVIKAARLLLSSVTKVLLLADRVVIKQIITSRNKVLATMERLEKVNSFQEFVQIFSQFGNEMVEFAHLSGDRQNDLKDEKKKAKMAAARAVLEKCTMMLLTASKTCLRHPNCESAHKNKEGVFDRMKVALDKVIEIVTDCKPNGETDISSISIFTGIKEFKMNIEALRENLYFQSKENLSVTLEVILERMEDFTDSAYTSHEHRERILELSTQARMELQQLISVWIQAQSKKTKSIAEELELSILKISHSLNELKKELHSTATQLAADLLKYHADHVVLKALKLTGVEGNLEALAEYACKLSEQKEQLVETCRLLRHISGTEPLEITCIHAEETFQVTGQQIISAAETLTLHPSSKIAKENLDVFCEAWESQISDMSTLLREINDVFEGRRGEKYGYLSLPKPMKNNANLKSLKPDKPDSEEQAKIAKLGLKLGLLTSDADCEIEKWEDQENEIVQYGRNMSSMAYSLYLFTRGEGPLKTSQDLIHQLEVFAAEGLKLTSSVQAFSKQLKDDDKLMLLLEINKLIPLCHQLQTVTKTSLQNKVFLKVDKCITKTRSMMALLVQLLSLCYKLLKKLQMENNGWVSVTNKDTMDSKT", "binding": "binds"}, {"molecule": "PRDX1 (protein, UniProt Q06830 1-199) MSSGNAKIGHPAPNFKATAVMPDGQFKDISLSDYKGKYVVFFFYPLDFTFVCPTEIIAFSDRAEEFKKLNCQVIGASVDSHFCHLAWVNTPKKQGGLGPMNIPLVSDPKRTIAQDYGVLKADEGISFRGLFIIDDKGILRQITVNDLPVGRSVDETLRLVQAFQFTDKHGEVCPAGWKPGSDTIKPDVQKSKEYFSKQK", "binding": "binds"}, {"molecule": "PRDX2 (protein, UniProt P32119 1-198) MASGNARIGKPAPDFKATAVVDGAFKEVKLSDYKGKYVVLFFYPLDFTFVCPTEIIAFSNRAEDFRKLGCEVLGVSVDSQFTHLAWINTPRKEGGLGPLNIPLLADVTRRLSEDYGVLKTDEGIAYRGLFIIDGKGVLRQITVNDLPVGRSVDEALRLVQAFQYTDEHGEVCPAGWKPGSDTIKPNVDDSKEYFSKHN", "binding": "binds"}, {"molecule": "PRDX6 (protein, UniProt P30041 1-224) MPGGLLLGDVAPNFEANTTVGRIRFHDFLGDSWGILFSHPRDFTPVCTTELGRAAKLAPEFAKRNVKLIALSIDSVEDHLAWSKDINAYNCEEPTEKLPFPIIDDRNRELAILLGMLDPAEKDEKGMPVTARVVFVFGPDKKLKLSILYPATTGRNFDEILRVVISLQLTAEKRVATPVDWKDGDSVMVLPTIPEEEAKKLFPKGVFTKELPSGKKYLRYTPQP", "binding": "binds"}, {"molecule": "thioredoxin (TXN), endogenous in HEK293 (protein, UniProt P10599 1-105) MVKQIESKTAFQEALDAAGDKLVVVDFSATWCGPCKMIKPFFHSLSEKYSNVIFLEVDVDDCQDVASECEVKCMPTFQFFKKGQKVGEFSGANKEKLEATINELV", "binding": "binds"}]}]}
